Results deposited as PubChem BioAssay AID1224828 (NIAID, 2016).
Test: 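Find genes required for NF-kappaB p65 moving into the nucleus after LPS in mouse macrophages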 (primary screen). Cell system: mouse RAW264.7 G9 macrophage reporter cells (GFP-p65, Tnf promoter-mCherry). Reagents: siRNA pool against mouse genes, 100 nM. Duration: 2 days siRNA transfection, then 40 min LPS before fixation. Conditions: LPS (Salmonella minnesota R595) at 10 ng/ml. Detection: 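Imaged p65 nuclear translocation ratio, normalised to the plate median, converted to robust z-scores and averaged across two replicates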. Direction: p65 translocation robust z-score: higher = more nuclear NF-kappaB p65 after LPS than the plate median; nuclear/cytoplasmic p65 ratio: higher = more nuclear NF-kappaB p65. Call rule: 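Called active when z exceeds 3.3 or falls under -1.56 (median of Tlr4 controls), giving activity score of at least 50; no calls for control wells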. Meaning of the calls: active = hit (p65 shift raised or lowered); inactive = no clear change.
This is a random part of about 17,000 reagents. 762 of all reagents (4.5%) were called active. 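Active calls include both raised and lowered p65 entry, mostly lowered; wells with fewer than 50 cells lack a z-score.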 The raw values are shown without normalisation. Unmarked entries are inactive. A reagent listed more than once was tested more than once; the source does not tell the runs apart.

| gene knocked down | p65 translocation robust z-score | nuclear/cytoplasmic p65 ratio, rep 1 | nuclear/cytoplasmic p65 ratio, rep 2 | low cell count flag |
| --- | --- | --- | --- | --- |
| AI837181 (GeneID 107242) | 1.66 | 1.83 | 1.9 | enough cells to score |
| Lck (GeneID 16818) | 0.24 | 1.76 | 1.41 | enough cells to score |
| Fkbp4 (GeneID 14228) | 1.14 | 1.58 | 1.52 | enough cells to score |
| Dpm1 (GeneID 13480) | -0.57 | 1.39 | 1.31 | enough cells to score |
| Urgcp (GeneID 72046) | – | 1.3 | 1.02 | fewer than 50 cells per well; well left out of scoring |
| Pcdhgc5 (GeneID 93708) | -1.11 | 1.29 | 1.11 | enough cells to score |
| Gata4 (GeneID 14463) | 0.69 | 1.5 | 1.49 | enough cells to score |
| Rilpl1 (GeneID 75695) | 0.27 | 1.32 | 1.26 | enough cells to score |
| Cblif (GeneID 14603) | -0.72 | 1.43 | 1.19 | enough cells to score |
| Gm4793 (GeneID 215714) | -1.45 | 1.5 | 1.32 | enough cells to score |
| Zfp866 (GeneID 330788) | -2.27 (active) | 1.26 | 1.25 | enough cells to score |
| A830073O21Rik (GeneID 320262) | -0.27 | 1.31 | 1.53 | enough cells to score |
| Zfp1 (GeneID 22640) | -0.12 | 1.43 | 1.21 | enough cells to score |
| Grk2 (GeneID 110355) | 0.76 | 1.87 | 1.43 | enough cells to score |
| Grk2 (GeneID 110355) | -0.33 | 1.47 | 1.52 | enough cells to score |
| Phf24 (GeneID 230085) | – | 1.59 | 1.45 | fewer than 50 cells per well; well left out of scoring |
| Epsti1 (GeneID 108670) | – | 1.52 | 1.59 | fewer than 50 cells per well; well left out of scoring |
| Cdin1 (GeneID 399568) | -0.16 | 1.21 | 1.5 | enough cells to score |
| Nup42 (GeneID 231042) | 0.57 | 1.93 | 1.5 | enough cells to score |
| Stfa2l1 (GeneID 268885) | 0.15 | 1.75 | 1.42 | enough cells to score |
| Fhip2a (GeneID 226252) | 1.28 | 1.85 | 1.83 | enough cells to score |
| Utp25 (GeneID 215193) | – | 1.27 | 1.5 | fewer than 50 cells per well; well left out of scoring |
| Mynn (GeneID 80732) | 0.81 | 1.93 | 1.7 | enough cells to score |
| Nox3 (GeneID 224480) | -0.67 | 1.61 | 1.43 | enough cells to score |
| Pih1d2 (GeneID 72614) | -0.19 | 1.41 | 1.44 | enough cells to score |
| Pdhb (GeneID 68263) | 1.83 | 1.85 | 1.51 | enough cells to score |
| Asah2 (GeneID 54447) | -1.09 | 1.36 | 1.44 | enough cells to score |
| Itfg1 (GeneID 71927) | -1.39 | 1.4 | 1.32 | enough cells to score |
| Oas1b (GeneID 23961) | – | 1.71 | 0 | fewer than 50 cells per well; well left out of scoring |
| Cand2 (GeneID 67088) | – | 1.42 | 1.09 | fewer than 50 cells per well; well left out of scoring |
| Tdpoz4 (GeneID 399675) | – | 1.33 | 1.15 | fewer than 50 cells per well; well left out of scoring |
| Exoc7 (GeneID 53413) | -2.13 (active) | 1.26 | 1.06 | enough cells to score |
| Synj2bp (GeneID 24071) | 1.12 | 1.59 | 1.24 | enough cells to score |
| Gm16897 (GeneID 320400) | 0 | 1.38 | 1.5 | enough cells to score |
| Morc2a (GeneID 74522) | 0.69 | 1.55 | 1.29 | enough cells to score |
| Ckmt2 (GeneID 76722) | -0.13 | 1.57 | 1.45 | enough cells to score |
| Sycn (GeneID 68416) | 0.93 | 1.45 | 1.32 | enough cells to score |
| Glmp (GeneID 56700) | 0.03 | 1.51 | 1.68 | enough cells to score |
| Fbxw17 (GeneID 109082) | – | 1.35 | 1.13 | fewer than 50 cells per well; well left out of scoring |
| Usp4 (GeneID 22258) | -0.13 | 1.51 | 1.47 | enough cells to score |
| Trim61 (GeneID 260296) | 1.32 | 1.63 | 1.34 | enough cells to score |
| Qrfpr (GeneID 229214) | 1.63 | 1.74 | 1.82 | enough cells to score |
| Atp2a3 (GeneID 53313) | -0.69 | 1.55 | 1.48 | enough cells to score |
| Pnliprp2 (GeneID 18947) | -2.14 (active) | 1.04 | 1.03 | enough cells to score |
| Dnai7 (GeneID 320662) | 0.52 | 1.69 | 1.84 | enough cells to score |
| Zfp87 (GeneID 170763) | 1.12 | 1.17 | 1.38 | enough cells to score |
| Lysmd3 (GeneID 80289) | -0.23 | 1.56 | 1.78 | enough cells to score |
| Asl (GeneID 109900) | 1.01 | 1.75 | 1.78 | enough cells to score |
| Dimt1 (GeneID 66254) | -0.94 | 1.38 | 1.35 | enough cells to score |
| Ston2 (GeneID 108800) | -0.96 | 1.21 | 1.13 | enough cells to score |
| Pgap2 (GeneID 233575) | -2.45 (active) | 1.22 | 1.08 | enough cells to score |
| En1 (GeneID 13798) | -0.6 | 1.35 | 1.32 | enough cells to score |
| Lypd11 (GeneID 210155) | -0.03 | 1.64 | 1.6 | enough cells to score |
| Tbc1d23 (GeneID 67581) | -1.77 (active) | 1.05 | 1.14 | enough cells to score |
| B3gnt2 (GeneID 53625) | -0.97 | 1.39 | 1.54 | enough cells to score |
| Chd4 (GeneID 107932) | -1.78 (active) | 1.37 | 1.15 | enough cells to score |
| Rtel1 (GeneID 269400) | 0.54 | 1.73 | 1.66 | enough cells to score |
| Aicda (GeneID 11628) | 1.04 | 1.65 | 1.89 | enough cells to score |
| Mtch2 (GeneID 56428) | -0.99 | 1.59 | 1.47 | enough cells to score |

Reagents above with an active call, once more:
| gene knocked down | p65 translocation robust z-score | nuclear/cytoplasmic p65 ratio, rep 1 | nuclear/cytoplasmic p65 ratio, rep 2 | low cell count flag |
| --- | --- | --- | --- | --- |
| Zfp866 (GeneID 330788) | -2.27 (active) | 1.26 | 1.25 | enough cells to score |
| Exoc7 (GeneID 53413) | -2.13 (active) | 1.26 | 1.06 | enough cells to score |
| Pnliprp2 (GeneID 18947) | -2.14 (active) | 1.04 | 1.03 | enough cells to score |
| Pgap2 (GeneID 233575) | -2.45 (active) | 1.22 | 1.08 | enough cells to score |
| Tbc1d23 (GeneID 67581) | -1.77 (active) | 1.05 | 1.14 | enough cells to score |
| Chd4 (GeneID 107932) | -1.78 (active) | 1.37 | 1.15 | enough cells to score |
